Among the data in publication PMC4742958, “NuSAP governs chromosome oscillation by facilitating the Kid-generated polar ejection force” (Nature Communications, 2016) are binding values, retold here.

No constants are given. Whether binding was seen depends on the method and setting. In cells and extracts the contact can be indirect. Some binding calls cover weakened binding; strength is not graded here. For some assays here: Tags and fused reporters may be left off the sequences shown.

Assay [1] addresses T1, FLAG-NuSAP (human (cDNA library from HEK 293T cells)) (UniProt Q9BXS6).
T1 sequence: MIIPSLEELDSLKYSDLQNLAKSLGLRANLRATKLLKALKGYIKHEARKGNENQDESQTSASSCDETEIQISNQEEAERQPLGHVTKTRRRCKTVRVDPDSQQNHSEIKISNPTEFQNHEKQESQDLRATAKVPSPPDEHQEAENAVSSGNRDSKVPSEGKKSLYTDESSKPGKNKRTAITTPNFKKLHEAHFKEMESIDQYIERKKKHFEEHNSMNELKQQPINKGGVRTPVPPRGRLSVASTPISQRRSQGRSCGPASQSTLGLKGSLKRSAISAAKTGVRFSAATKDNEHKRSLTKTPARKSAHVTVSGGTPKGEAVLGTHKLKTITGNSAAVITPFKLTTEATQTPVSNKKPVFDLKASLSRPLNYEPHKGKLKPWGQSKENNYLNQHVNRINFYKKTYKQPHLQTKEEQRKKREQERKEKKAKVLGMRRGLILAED
As to the kind of experiment: co-IP; HeLa cells transfected with FLAG-NuSAP, thymidine/nocodazole arrest and release into fresh medium, indicated time points; FLAG M2 beads with lysate 1 h at 4 °C; blotted with anti-Kid.

Assay [2] has as its target T2, NuSAP (Nucleolar and Spindle-Associated Protein), endogenous (human (endogenous in HeLa)) (UniProt Q9BXS6).
T2 sequence: T1 sequence
As to the kind of experiment: co-IP; endogenous proteins; synchronized HeLa cells shaken off and lysed in M-PER with 10 μg/ml nocodazole; lysate incubated with 2 μg rabbit IgG or NuSAP antibody bound to protein A-Sepharose beads, 1 h at 4 °C; blotted with anti-Kid.

B1: Kid (kinesin-like DNA-binding protein), endogenous (protein, UniProt Q14807 1-665)
chain: MAAGGSTQQRRREMAAASAAAISGAGRCRLSKIGATRRPPPARVRVAVRLRPFVDGTAGASDPPCVRGMDSCSLEIANWRNHQETLKYQFDAFYGERSTQQDIYAGSVQPILRHLLEGQNASVLAYGPTGAGKTHTMLGSPEQPGVIPRALMDLLQLTREEGAEGRPWALSVTMSYLEIYQEKVLDLLDPASGDLVIREDCRGNILIPGLSQKPISSFADFERHFLPASRNRTVGATRLNQRSSRSHAVLLVKVDQRERLAPFRQREGKLYLIDLAGSEDNRRTGNKGLRLKESGAINTSLFVLGKVVDALNQGLPRVPYRDSKLTRLLQDSLGGSAHSILIANIAPERRFYLDTVSALNFAARSKEVINRPFTNESLQPHALGPVKLSQKELLGPPEAKRARGPEEEEIGSPEPMAAPASASQKLSPLQKLSSMDPAMLERLLSLDRLLASQGSQGAPLLSTPKRERMVLMKTVEEKDLEIERLKTKQKELEAKMLAQKAEEKENHCPTMLRPLSHRTVTGAKPLKKAVVMPLQLIQEQAASPNAEIHILKNKGRKRKLESLDALEPEEKAEDCWELQISPELLAHGRQKILDLLNEGSARDLRSLQRIGPKKAQLIVGWRELHGPFSQVEDLERVEGITGKQMESFLKANILGLAAGQRCGAS
As for B1, the binding result in assay [1] and in assay [2] was “binds” throughout.
